42 sequences from paper PMC7819943, “Rice protein-binding microarrays: a tool to detect cis-acting elements near promoter regions in rice” can be followed below.

Sequences of proteins named here, by UniProt entry; tags and fusion partners are left off.
UniProt Q0JBA9, entry or part of it: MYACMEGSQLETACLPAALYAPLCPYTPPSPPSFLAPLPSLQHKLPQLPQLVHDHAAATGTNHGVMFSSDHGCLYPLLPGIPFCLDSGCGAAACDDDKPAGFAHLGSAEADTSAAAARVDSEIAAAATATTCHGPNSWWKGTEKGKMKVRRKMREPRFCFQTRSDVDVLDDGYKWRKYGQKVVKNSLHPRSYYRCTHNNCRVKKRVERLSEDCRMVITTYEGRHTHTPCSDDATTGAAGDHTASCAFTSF

This is one part of the list.

The target of the experiment is OsWRKY34 (Oryza sativa, UniProt Q0JBA9 1-250). Put plainly: protein-binding microarray (RPBM); PBS, 2% BSA, 51.3 ng/ul salmon testes DNA, 50 uM zinc acetate, 200 nM TF, 25 C, 1 h; high values mean tight binding. As to conditions: protein: recombinant; tags: N-terminal polyhistidine and DsRed monomer fusion (pET32a); label: CyDye5-dUTP incorporated in the synthesized complementary strand; 3' TTTTT single-stranded linker to array surface; dsDNA, one strand shown. Summed up: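 Per-feature fluorescence intensity (arbitrary units), read on an Axon 4000B scanner, is the binding signal. Transcription factors carrying an N-terminal polyhistidine tag and DsRed fusion were expressed in E. coli BL21-CodonPlus and purified on Ni–NTA. A custom Agilent array, made double-stranded by primer extension with Cy5-dUTP and blocked with 2% BSA, was incubated with 200 nM protein in PBS, 2% BSA, salmon testes DNA and 50 µM zinc acetate at 25 °C for 1 h and then washed.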
For the sequence “ATGCATTCATTTTTGTTTTTACTTTTATTATTTCTTTTGTCGGAGTCACCTAGTGCAG”, the binding signal was 10000 fluorescence intensity (a.u.).
Turning to “ATTTAACTAGCGCTATACATTTTGTGTAATTTTACATACACGGAGTCACCTAGTGCAG”, the binding signal was 8230 fluorescence intensity (a.u.).
For “TTGATTCTGTTTTCGTGTCCGGGGTTTTCGATTCTGAAAACGGAGTCACCTAGTGCAG”, the binding signal was 16100 fluorescence intensity (a.u.).
As for “CTTAGACCAACTCGGCCATCTCAACTTTTTGCTCTGTCATCGGAGTCACCTAGTGCAG”, the binding signal was 9000 fluorescence intensity (a.u.).
On to “TTTGGCTTTTTCTAGCTAGTGCTCACCTCCAGCTATATATCGGAGTCACCTAGTGCAG”, for which the binding signal was 9220 fluorescence intensity (a.u.).
Regarding “TGGCAGTTCGATCGATCTTATCTCGTTTTTCTTCTCCGAACGGAGTCACCTAGTGCAG”, the binding signal was 8690 fluorescence intensity (a.u.).
On to “GGTGGGCATTATCCCAAAGAGAGAAAACAAGAAGTATCATCGGAGTCACCTAGTGCAG”, for which the binding signal is 8230 fluorescence intensity (a.u.).
With “TCAACACAGCAACGTTTCACTTTCATATCATCTGATTATTCGGAGTCACCTAGTGCAG” the figure was 8470 fluorescence intensity (a.u.); with “TCCACCCACGCCACATCGCTCCTTTGCCCTGCGCCGCCCACGGAGTCACCTAGTGCAG”, 8900 fluorescence intensity (a.u.).
As to “TTGGTTTTAATCGGTTTTGCTCGGTAACCGTGGTCAGGGGCGGAGTCACCTAGTGCAG”, the binding signal was 9700 fluorescence intensity (a.u.).
“AGATCCTGTCCATGTTCATCATCTACATGACTACAATACCCGGAGTCACCTAGTGCAG”: the binding signal was 9430 fluorescence intensity (a.u.).
In the case of “AGTGGTTGGATAGATGTATTTGTCACGTTGATGTCTGGAGCGGAGTCACCTAGTGCAG”, the binding signal is 10500 fluorescence intensity (a.u.).
“TCCTCCTCTTCGCCTCGTCTCTCTGCCCTGCCTCGTGCGCCGGAGTCACCTAGTGCAG”: the binding signal was 8880 fluorescence intensity (a.u.).
“TATGTTATTTTGTATGTCTTGTATTGGTATCATATATTTACGGAGTCACCTAGTGCAG”: the binding signal was 12100 fluorescence intensity (a.u.).
“AAATTTTAAGGCTGCATTTTGAGTGTCCCTTGTTGCTTTCCGGAGTCACCTAGTGCAG”: the binding signal was 8190 fluorescence intensity (a.u.).
For the sequence “GGGGTAATTCGTCCGGTTTGCATAGTTGGGGTGAAGAATGCGGAGTCACCTAGTGCAG”, the binding signal was 15500 fluorescence intensity (a.u.).
Turning to “GTCGTCCTCGCCGCCGTCGCTCTCACCACCACCACACTATCGGAGTCACCTAGTGCAG”, the binding signal was 10700 fluorescence intensity (a.u.).
Then “CCTTCGTCTCCGCTCGCCTCGCCGTCGCCGTACGTCGCCCCGGAGTCACCTAGTGCAG”, with 8410 fluorescence intensity (a.u.).
“AATTAATCATCAATCTCTCATTATCTCCTGTTTTCTTCTCCGGAGTCACCTAGTGCAG”: the binding signal is 10500 fluorescence intensity (a.u.).
For “GGGAAAAAGTAGCGGACCGCACCATCCGATTTCCGCGCCCCGGAGTCACCTAGTGCAG”, the binding signal was 8300 fluorescence intensity (a.u.).
As to “CTCGTCCGTACCTGCCCCGCTTCTACCCAAGCGCCTTCCGCGGAGTCACCTAGTGCAG”, the binding signal was 9040 fluorescence intensity (a.u.).
Consider “TCGGAAATTTTCATATCATTTTCATCCTTCGTTACTGACACGGAGTCACCTAGTGCAG”, for which the binding signal was 9850 fluorescence intensity (a.u.).
As to “GGACGGCGGCGTCCGGGGCCCGATCTCGGGGTGGGTGTGTCGGAGTCACCTAGTGCAG”, the binding signal is 9510 fluorescence intensity (a.u.).
For “ACCGCCGCGCGCGCCCTAAAACCCCAGCAACCAACCTCTCCGGAGTCACCTAGTGCAG”, the binding signal was 9750 fluorescence intensity (a.u.).
Then “TCCTCAACTCCTCATCCATGCATCGCCTGTCAGCTCTATACGGAGTCACCTAGTGCAG”, with 9330 fluorescence intensity (a.u.); and “CCTGTGAATAAACTGCTTTTCACAATGACCTGTTTTACTCCGGAGTCACCTAGTGCAG”, with 8130 fluorescence intensity (a.u.); and “CGCTCCCATCGGCGCACGCGTCCACCCCGGCCGCTCTCCTCGGAGTCACCTAGTGCAG”, with 10100 fluorescence intensity (a.u.).
As to “GCCCTTCGAGAGGTTTGTTTCTGCTTCATTTGTCTCCACTCGGAGTCACCTAGTGCAG”, the binding signal is 8700 fluorescence intensity (a.u.).
Take “TATGTAATTGTTATTTATGTGATCGCTTGTGTTGAAGGGGCGGAGTCACCTAGTGCAG”: the binding signal was 10000 fluorescence intensity (a.u.).
As to “CGTTTCACGCTTTACCAGCCTGGCGCGTCGCGTCCGTCCACGGAGTCACCTAGTGCAG”, the binding signal is 11000 fluorescence intensity (a.u.).
As to “ACTTCTACTCAATTACACCTCATCCTTGCATACAAACAAACGGAGTCACCTAGTGCAG”, the binding signal was 8270 fluorescence intensity (a.u.).
For “CATTTGTGTTCCCATTTGCCGCCTTCTCCTTCTTCTCCGACGGAGTCACCTAGTGCAG”, the binding signal is 8170 fluorescence intensity (a.u.).
Then “CGTTTGCCGCTGCACTGCACTGTTGCCCTCGGCCGCTGGCCGGAGTCACCTAGTGCAG”, with 10800 fluorescence intensity (a.u.); and “CATTTCTTATTTTGTTTTTGGGCTTTGATGTTTGGTTTCTCGGAGTCACCTAGTGCAG”, with 8740 fluorescence intensity (a.u.).
Turning to “GACGCACCCAATACACTCCAATATGTCCAAAAAATGTTTCCGGAGTCACCTAGTGCAG”, the binding signal is 8700 fluorescence intensity (a.u.).
With “CGTTAGGGTTTGAGATTGAGAGGGGCGGCGCTGGCGATCGCGGAGTCACCTAGTGCAG” the figure was 11000 fluorescence intensity (a.u.); with “TCCACTTCCGCTCGTGCGCCGCGTCGCCTCGTGACCTCCGCGGAGTCACCTAGTGCAG”, 10700 fluorescence intensity (a.u.).
Take “GTGTATCTACCTGCATGCTCTGCAACTTAACATCATGTTCCGGAGTCACCTAGTGCAG”: the binding signal was 10700 fluorescence intensity (a.u.).
Take “GTGGTTTCGCAGGTAGATGGTCTTCTTCCTGTCTGGTAGACGGAGTCACCTAGTGCAG”: the binding signal is 8210 fluorescence intensity (a.u.).
With “CTCTCTCTCACTCACTCACTCTCCTCTACTAGCTCGTCTCCGGAGTCACCTAGTGCAG” the figure was 8940 fluorescence intensity (a.u.); with “ACCGTTCACCATCCATGTCTCCGCGCCCGTGATCGAGCATCGGAGTCACCTAGTGCAG”, 9640 fluorescence intensity (a.u.).
“CAAGGACTTGGATATGGTTAGTAAGGGAGAGGGAGGGGTCCGGAGTCACCTAGTGCAG”: the binding signal was 9010 fluorescence intensity (a.u.).
